According to article PMC4224335:
These are yes or no findings as the source states them, for the method shown. Some entries that bind do so weakly or less than the wild type.

Chains of the proteins cited; added tags and fusions are not shown. Lines headed by an entry give the natural chain unless they say otherwise; changes in a name come on top.
UniProt O95298: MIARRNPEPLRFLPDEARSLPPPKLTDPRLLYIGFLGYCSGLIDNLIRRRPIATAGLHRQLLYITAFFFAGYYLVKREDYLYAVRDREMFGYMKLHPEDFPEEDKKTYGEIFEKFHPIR
UniProt P03905: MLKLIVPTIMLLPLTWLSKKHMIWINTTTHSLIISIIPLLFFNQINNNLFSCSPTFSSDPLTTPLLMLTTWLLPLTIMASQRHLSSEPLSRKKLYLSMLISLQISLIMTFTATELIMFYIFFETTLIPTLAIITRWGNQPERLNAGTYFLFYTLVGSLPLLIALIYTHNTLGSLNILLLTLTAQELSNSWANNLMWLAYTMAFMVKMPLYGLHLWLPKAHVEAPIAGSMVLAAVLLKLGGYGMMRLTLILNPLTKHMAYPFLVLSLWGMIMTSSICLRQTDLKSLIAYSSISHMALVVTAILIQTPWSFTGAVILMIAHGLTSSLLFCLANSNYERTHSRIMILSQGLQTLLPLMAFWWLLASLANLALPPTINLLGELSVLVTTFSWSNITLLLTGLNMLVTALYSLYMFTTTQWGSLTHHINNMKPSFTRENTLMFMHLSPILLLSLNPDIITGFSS

What was measured:
Assay in all cases: two-hybrid; semiquantitative: generation time of cotransformed PJ yeast in liquid SC-Leu-Trp-His; pAD–NDUFC2 (WT or mutants) called bait, pBD–ND4 called prey; average of at least four independent experiments
[1] = biological target: NDUFC2-L (wild type, leucine at position 46), pAD fusion (human) (UniProt O95298)
[2] = biological target: NDUFC2-A (alanine at position 46), pAD fusion (human) (UniProt O95298)
[3] = biological target: NDUFC2-V (valine at position 46, second human allele), pAD fusion (human) (UniProt O95298)

Measured: binding

mtDNA-encoded complex I subunit ND4 (recoded to the cytoplasmic genetic code), pBD fusion (from UniProt P03905 1-459)
binds: all assays above
